The supplement of paper PMC3334620
Whole data set: some 33,000 sequences, median “E-score (-0.5 to 0.5)” near -0.015, cut for the highest 2% near 0.3. This is one part of the list.

Biological target: T1, Abf1 (UniProt P14164)
T1 sequence: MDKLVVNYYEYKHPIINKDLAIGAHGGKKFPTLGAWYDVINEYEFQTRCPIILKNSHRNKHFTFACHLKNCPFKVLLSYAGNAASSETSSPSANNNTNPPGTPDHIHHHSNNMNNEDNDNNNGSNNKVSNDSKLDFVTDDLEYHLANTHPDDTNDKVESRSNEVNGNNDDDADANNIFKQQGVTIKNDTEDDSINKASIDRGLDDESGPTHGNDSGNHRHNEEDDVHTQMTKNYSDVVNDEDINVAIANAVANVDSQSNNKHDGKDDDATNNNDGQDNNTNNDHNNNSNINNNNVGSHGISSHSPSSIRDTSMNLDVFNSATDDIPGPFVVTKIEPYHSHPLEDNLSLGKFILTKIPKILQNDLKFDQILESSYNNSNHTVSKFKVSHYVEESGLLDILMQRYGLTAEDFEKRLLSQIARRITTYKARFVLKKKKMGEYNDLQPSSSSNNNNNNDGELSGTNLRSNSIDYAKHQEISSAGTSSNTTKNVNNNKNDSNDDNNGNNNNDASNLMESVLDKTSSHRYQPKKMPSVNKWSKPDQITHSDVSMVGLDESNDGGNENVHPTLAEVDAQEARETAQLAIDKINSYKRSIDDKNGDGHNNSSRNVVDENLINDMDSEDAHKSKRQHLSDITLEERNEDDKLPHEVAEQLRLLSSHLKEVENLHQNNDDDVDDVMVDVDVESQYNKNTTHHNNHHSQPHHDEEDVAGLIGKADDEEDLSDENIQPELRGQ
Assay: PBM E-score (8-mer binding enrichment) (E-score (-0.5 to 0.5)); higher = stronger / more preferred TF binding
Settings: protein concentration: 200 nM; construct: GST-full length
Procedure, shortened: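 PURExpress in vitro transcription/translation supplied GST-tagged yeast transcription factors, either full-length or DNA-binding domain. Applied at about 100-200 nM to universal all-10-mer Agilent arrays double-stranded by primer extension, the bound protein was detected with fluorescent anti-GST. E-scores, modified Wilcoxon-Mann-Whitney statistics, were given by the Universal PBM Analysis Suite to ungapped eight-base words pooled with their reverse complements after masliner normalisation.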

For CAATATGG, which “PBM E-score” value is on record?
The value was -0.143.

With ATCGATAA as the sequence, how does the “PBM E-score” value read?
The value was 0.147.

For ACCCGTGG, which “PBM E-score” value is on record?
Its value is -0.112.

For CGGGCAAA, which “PBM E-score” value is on record?
Its value is 0.104.

Which “PBM E-score” value does the source give for AGGCTTTA here?
Its value is -0.275.

With ATCCTTAC as the sequence, how does the “PBM E-score” value read?
Its value is -0.094.

For ATAGATGA, which “PBM E-score” value is on record?
The value was 0.212.

With CAGAGCCA as the sequence, how does the “PBM E-score” value read?
Its value is -0.361.

Which “PBM E-score” value does the source give for ACACGGAA here?
The value was 0.267.

AAAAGTAC was tested. Which “PBM E-score” value did it give?
The value was -0.00173.

With GGTTAGTA as the sequence, how does the “PBM E-score” value read?
The value was -0.169.

With ATATACAG as the sequence, how does the “PBM E-score” value read?
Its value is 0.187.

Which “PBM E-score” value does the source give for ACTAGTTC here?
Its value is 0.0309.

Which “PBM E-score” value does the source give for ACCCCTTG here?
The value was -0.356.

With ATGTTACA as the sequence, how does the “PBM E-score” value read?
The value was 0.1.

For CCAGATTA, which “PBM E-score” value is on record?
Its value is 0.0472.

How did the “PBM E-score” value turn out when CAGCTTGC was run?
Its value is -0.161.

GCGAACGC was tested. Which “PBM E-score” value did it give?
The value was 0.0422.

TAAGTTCA was tested. Which “PBM E-score” value did it give?
The value was 0.0492.

With CACTGTTC as the sequence, how does the “PBM E-score” value read?
Its value is -0.14.

CTAGCAGC was tested. Which “PBM E-score” value did it give?
Its value is -0.12.

With GCAGCTAA as the sequence, how does the “PBM E-score” value read?
The value was 0.0902.

For GAAATTAC, which “PBM E-score” value is on record?
Its value is 0.119.

For CGCAGTAA, which “PBM E-score” value is on record?
Its value is 0.0126.

How did the “PBM E-score” value turn out when ATCTGCAG was run?
The value was -0.106.

How did the “PBM E-score” value turn out when GCATCGTA was run?
Its value is 0.0828.

Which “PBM E-score” value does the source give for AGTTCGGG here?
Its value is 0.0167.

Which “PBM E-score” value does the source give for GCAGTCTA here?
Its value is -0.0989.

For CGCGACCG, which “PBM E-score” value is on record?
Its value is 0.103.

How did the “PBM E-score” value turn out when GAGAGCGC was run?
Its value is -0.184.

Which “PBM E-score” value does the source give for AAGCTTTC here?
Its value is 0.0211.

For CAAGCCGG, which “PBM E-score” value is on record?
The value was -0.0437.

With TCGACTCA as the sequence, how does the “PBM E-score” value read?
Its value is -0.0488.

For ACGCCTAT, which “PBM E-score” value is on record?
The value was -0.157.

With ATCCGTCA as the sequence, how does the “PBM E-score” value read?
Its value is 0.23.

For AAGTTTCT, which “PBM E-score” value is on record?
Its value is 0.0716.

For ATTTCCTA, which “PBM E-score” value is on record?
The value was 0.235.

With TCAGCAAA as the sequence, how does the “PBM E-score” value read?
The value was 0.0617.

How did the “PBM E-score” value turn out when ACGGGCGG was run?
The value was -0.16.

Which “PBM E-score” value does the source give for GCATCGCC here?
The value was -0.0959.

With GACCGAAC as the sequence, how does the “PBM E-score” value read?
Its value is 0.027.

ATGAGACA was tested. Which “PBM E-score” value did it give?
The value was 0.114.

AGTGCGTG was tested. Which “PBM E-score” value did it give?
Its value is 0.0167.

How did the “PBM E-score” value turn out when GAGTGGCC was run?
Its value is -0.198.

How did the “PBM E-score” value turn out when AATGGTTC was run?
Its value is 0.00999.

ACACGTCG was tested. Which “PBM E-score” value did it give?
The value was 0.132.

GGCAAAGA was tested. Which “PBM E-score” value did it give?
The value was 0.0763.

Which “PBM E-score” value does the source give for CCTGCGTA here?
The value was 0.0181.

With AACTGTTA as the sequence, how does the “PBM E-score” value read?
Its value is 0.0126.

How did the “PBM E-score” value turn out when AACCGAGT was run?
The value was -0.0291.

With CAAAGCTG as the sequence, how does the “PBM E-score” value read?
Its value is -0.136.

AAGGTTAT was tested. Which “PBM E-score” value did it give?
The value was -0.0209.

Which “PBM E-score” value does the source give for GGCATACC here?
The value was -0.0488.

ATATGAGC was tested. Which “PBM E-score” value did it give?
The value was -0.0829.

With AGTAGTAC as the sequence, how does the “PBM E-score” value read?
The value was 0.176.

Which “PBM E-score” value does the source give for CAATAAGC here?
The value was -0.0209.

CCCAATTC was tested. Which “PBM E-score” value did it give?
The value was 0.152.

How did the “PBM E-score” value turn out when AGTAAGGA was run?
Its value is -0.117.

Which “PBM E-score” value does the source give for CGTCGAGC here?
Its value is -0.0199.

For TAACCCAA, which “PBM E-score” value is on record?
Its value is 0.0926.

Which “PBM E-score” value does the source give for TCATGGCA here?
The value was 0.0671.

With GGCAGGGA as the sequence, how does the “PBM E-score” value read?
Its value is -0.142.

For ACGCGACC, which “PBM E-score” value is on record?
The value was 0.0451.

How did the “PBM E-score” value turn out when CAATCGCG was run?
The value was -0.118.

With TATGCGCA as the sequence, how does the “PBM E-score” value read?
Its value is -0.0687.

With AAGGTAAG as the sequence, how does the “PBM E-score” value read?
The value was -0.17.

GTGACTTA was tested. Which “PBM E-score” value did it give?
The value was 0.244.

How did the “PBM E-score” value turn out when ACGCCTGA was run?
Its value is 0.0896.

CATTTGGC was tested. Which “PBM E-score” value did it give?
Its value is -0.0139.

For GACGGCAA, which “PBM E-score” value is on record?
The value was 0.246.

CGCAAGCC was tested. Which “PBM E-score” value did it give?
Its value is 0.0644.

Which “PBM E-score” value does the source give for ACTTTCCT here?
The value was -0.0527.

ATGACTTC was tested. Which “PBM E-score” value did it give?
Its value is 0.183.

How did the “PBM E-score” value turn out when CCTCATCA was run?
Its value is 0.227.

How did the “PBM E-score” value turn out when TCGATTCA was run?
The value was 0.0442.

How did the “PBM E-score” value turn out when ATACGAAT was run?
Its value is 0.275.

For CCCACGCC, which “PBM E-score” value is on record?
The value was -0.116.

How did the “PBM E-score” value turn out when ATCTCTCG was run?
The value was -0.0349.

GTTACAGA was tested. Which “PBM E-score” value did it give?
Its value is -0.136.

How did the “PBM E-score” value turn out when CATTATAG was run?
Its value is -0.0674.

How did the “PBM E-score” value turn out when GCAGTTAC was run?
Its value is -0.0187.

Which “PBM E-score” value does the source give for ACCGTTAC here?
Its value is 0.0659.

For GACGCCTC, which “PBM E-score” value is on record?
Its value is -0.0456.

Which “PBM E-score” value does the source give for GGGAATTA here?
The value was 0.0268.

For CACTCTAA, which “PBM E-score” value is on record?
The value was 0.0194.

With CGTAGCTC as the sequence, how does the “PBM E-score” value read?
Its value is 0.231.
